Reference: article PMC5095010
Results are given in words; binding and its absence hold for the method and conditions named. Binding seen in cells or lysates may run through a third protein. Some entries that bind do so weakly or less than the wild type.

The chains behind the UniProt entries cited, without tags or fusion partners.
UniProt O15554: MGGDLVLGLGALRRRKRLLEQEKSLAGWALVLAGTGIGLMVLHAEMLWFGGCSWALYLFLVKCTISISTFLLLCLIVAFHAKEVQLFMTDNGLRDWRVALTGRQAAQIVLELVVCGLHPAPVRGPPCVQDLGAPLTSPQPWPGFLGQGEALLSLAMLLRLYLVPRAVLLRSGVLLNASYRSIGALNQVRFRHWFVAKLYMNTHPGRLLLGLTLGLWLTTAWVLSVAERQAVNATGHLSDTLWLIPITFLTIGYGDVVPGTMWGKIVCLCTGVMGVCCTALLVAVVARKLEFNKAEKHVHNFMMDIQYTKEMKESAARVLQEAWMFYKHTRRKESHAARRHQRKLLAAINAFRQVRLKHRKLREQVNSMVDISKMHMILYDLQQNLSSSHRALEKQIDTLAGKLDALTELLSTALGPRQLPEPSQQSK
UniProt P48995: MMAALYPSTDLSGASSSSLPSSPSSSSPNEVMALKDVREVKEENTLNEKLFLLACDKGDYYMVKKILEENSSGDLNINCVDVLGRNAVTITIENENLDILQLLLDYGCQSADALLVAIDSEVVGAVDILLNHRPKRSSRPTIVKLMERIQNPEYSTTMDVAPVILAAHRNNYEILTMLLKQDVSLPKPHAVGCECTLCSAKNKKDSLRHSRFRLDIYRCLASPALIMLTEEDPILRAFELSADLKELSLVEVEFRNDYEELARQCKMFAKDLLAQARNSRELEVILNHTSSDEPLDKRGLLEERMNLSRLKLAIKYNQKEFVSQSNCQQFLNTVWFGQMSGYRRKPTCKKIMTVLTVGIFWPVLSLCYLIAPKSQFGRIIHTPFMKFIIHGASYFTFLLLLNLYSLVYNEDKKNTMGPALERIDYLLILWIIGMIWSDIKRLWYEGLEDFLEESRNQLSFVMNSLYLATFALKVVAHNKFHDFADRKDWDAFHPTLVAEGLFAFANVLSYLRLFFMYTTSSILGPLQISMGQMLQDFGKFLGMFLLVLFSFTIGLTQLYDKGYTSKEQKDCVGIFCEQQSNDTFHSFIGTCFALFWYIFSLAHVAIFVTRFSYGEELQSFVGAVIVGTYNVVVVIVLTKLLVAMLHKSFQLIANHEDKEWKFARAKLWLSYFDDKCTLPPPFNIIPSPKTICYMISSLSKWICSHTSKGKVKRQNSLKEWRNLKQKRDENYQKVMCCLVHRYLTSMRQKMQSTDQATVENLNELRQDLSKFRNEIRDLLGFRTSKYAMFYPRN

Target: intermediate-conductance Ca2+-activated K+ channel KCa3.1 (human (endogenous in MCF-7)) (UniProt O15554)
Assay: co-IP; 1 mg MCF-7 lysate in RIPA buffer (1% Triton X-100, 1% sodium deoxycholate, 150 mM NaCl, 50 mM Tris-HCl pH 7.4, 2 mM EDTA), precleared, incubated overnight with 3 ug anti-KCa3.1 antibody, protein A and G magnetic beads; Western blot for TRPC1 and KCa3.1; cells treated or not with 5 mg/ml methyl-beta-cyclodextrin for 24 h (treatment: 52.8% decrease of the pulled-down amount of TRPC1)

binding: binds
Substance: TRPC1 channel (from UniProt P48995 1-793)
